Test results reported in US20240174733A1 (ACCELERON PHARMA, published 2024).
No constants are given. Whether binding was seen depends on the method and setting. Some binding calls cover weakened binding; strength is not graded here.

Protein sequences, listed by entry. Tags and fused reporters are not part of them. Lines headed by an entry give the natural chain unless they say otherwise; changes in a name come on top. Residues count along the entry.
UniProt P22004, residues 382-513: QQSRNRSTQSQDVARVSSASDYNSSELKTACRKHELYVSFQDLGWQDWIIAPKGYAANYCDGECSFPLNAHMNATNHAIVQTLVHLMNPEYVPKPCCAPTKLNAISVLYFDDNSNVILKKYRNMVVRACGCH
UniProt P27037: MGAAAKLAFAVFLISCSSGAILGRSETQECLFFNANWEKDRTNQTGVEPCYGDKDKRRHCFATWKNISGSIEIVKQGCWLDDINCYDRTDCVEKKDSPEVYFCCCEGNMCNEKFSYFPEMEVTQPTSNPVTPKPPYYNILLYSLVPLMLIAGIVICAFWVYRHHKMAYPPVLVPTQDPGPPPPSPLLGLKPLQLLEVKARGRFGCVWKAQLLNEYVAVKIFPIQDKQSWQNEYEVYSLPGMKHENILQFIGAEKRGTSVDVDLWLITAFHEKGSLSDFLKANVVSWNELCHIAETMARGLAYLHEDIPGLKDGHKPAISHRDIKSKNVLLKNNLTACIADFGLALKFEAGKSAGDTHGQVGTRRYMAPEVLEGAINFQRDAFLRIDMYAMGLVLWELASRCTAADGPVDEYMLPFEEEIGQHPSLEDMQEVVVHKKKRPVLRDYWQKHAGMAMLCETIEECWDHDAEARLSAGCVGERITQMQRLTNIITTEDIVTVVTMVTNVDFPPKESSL

Target: BMP6 (UniProt P22004)
Assay: similar binding assay (Biacore)

binding: binds
Substance: ActRIIA-mFc (from UniProt P27037 21-135) (Fc fusion)
